Reference: patent US20100279941A1, “CD36 MODULATION AND USES THEREOF” (priority 2009, published 2010)

Test: Body and left ventricular weights after transient LCAL
Format: in vivo, mice
Conditions: EP 80317 300 μg/kg/day s.c.; 48 hours after LCAL; effect in words

Substance: HAIC-2MeDTrp-DLys-Trp-DPhe-Lys-NH2 [EP 80317]
- BW (body weight): did not modulate
- LV/BW ratio: did not modulate
